{
  "sequences": {"note": "Sequences of proteins named here, by UniProt entry; tags and fusion partners are left off. Residues count along the entry.", "UniProt P17927, residues 42-1971": "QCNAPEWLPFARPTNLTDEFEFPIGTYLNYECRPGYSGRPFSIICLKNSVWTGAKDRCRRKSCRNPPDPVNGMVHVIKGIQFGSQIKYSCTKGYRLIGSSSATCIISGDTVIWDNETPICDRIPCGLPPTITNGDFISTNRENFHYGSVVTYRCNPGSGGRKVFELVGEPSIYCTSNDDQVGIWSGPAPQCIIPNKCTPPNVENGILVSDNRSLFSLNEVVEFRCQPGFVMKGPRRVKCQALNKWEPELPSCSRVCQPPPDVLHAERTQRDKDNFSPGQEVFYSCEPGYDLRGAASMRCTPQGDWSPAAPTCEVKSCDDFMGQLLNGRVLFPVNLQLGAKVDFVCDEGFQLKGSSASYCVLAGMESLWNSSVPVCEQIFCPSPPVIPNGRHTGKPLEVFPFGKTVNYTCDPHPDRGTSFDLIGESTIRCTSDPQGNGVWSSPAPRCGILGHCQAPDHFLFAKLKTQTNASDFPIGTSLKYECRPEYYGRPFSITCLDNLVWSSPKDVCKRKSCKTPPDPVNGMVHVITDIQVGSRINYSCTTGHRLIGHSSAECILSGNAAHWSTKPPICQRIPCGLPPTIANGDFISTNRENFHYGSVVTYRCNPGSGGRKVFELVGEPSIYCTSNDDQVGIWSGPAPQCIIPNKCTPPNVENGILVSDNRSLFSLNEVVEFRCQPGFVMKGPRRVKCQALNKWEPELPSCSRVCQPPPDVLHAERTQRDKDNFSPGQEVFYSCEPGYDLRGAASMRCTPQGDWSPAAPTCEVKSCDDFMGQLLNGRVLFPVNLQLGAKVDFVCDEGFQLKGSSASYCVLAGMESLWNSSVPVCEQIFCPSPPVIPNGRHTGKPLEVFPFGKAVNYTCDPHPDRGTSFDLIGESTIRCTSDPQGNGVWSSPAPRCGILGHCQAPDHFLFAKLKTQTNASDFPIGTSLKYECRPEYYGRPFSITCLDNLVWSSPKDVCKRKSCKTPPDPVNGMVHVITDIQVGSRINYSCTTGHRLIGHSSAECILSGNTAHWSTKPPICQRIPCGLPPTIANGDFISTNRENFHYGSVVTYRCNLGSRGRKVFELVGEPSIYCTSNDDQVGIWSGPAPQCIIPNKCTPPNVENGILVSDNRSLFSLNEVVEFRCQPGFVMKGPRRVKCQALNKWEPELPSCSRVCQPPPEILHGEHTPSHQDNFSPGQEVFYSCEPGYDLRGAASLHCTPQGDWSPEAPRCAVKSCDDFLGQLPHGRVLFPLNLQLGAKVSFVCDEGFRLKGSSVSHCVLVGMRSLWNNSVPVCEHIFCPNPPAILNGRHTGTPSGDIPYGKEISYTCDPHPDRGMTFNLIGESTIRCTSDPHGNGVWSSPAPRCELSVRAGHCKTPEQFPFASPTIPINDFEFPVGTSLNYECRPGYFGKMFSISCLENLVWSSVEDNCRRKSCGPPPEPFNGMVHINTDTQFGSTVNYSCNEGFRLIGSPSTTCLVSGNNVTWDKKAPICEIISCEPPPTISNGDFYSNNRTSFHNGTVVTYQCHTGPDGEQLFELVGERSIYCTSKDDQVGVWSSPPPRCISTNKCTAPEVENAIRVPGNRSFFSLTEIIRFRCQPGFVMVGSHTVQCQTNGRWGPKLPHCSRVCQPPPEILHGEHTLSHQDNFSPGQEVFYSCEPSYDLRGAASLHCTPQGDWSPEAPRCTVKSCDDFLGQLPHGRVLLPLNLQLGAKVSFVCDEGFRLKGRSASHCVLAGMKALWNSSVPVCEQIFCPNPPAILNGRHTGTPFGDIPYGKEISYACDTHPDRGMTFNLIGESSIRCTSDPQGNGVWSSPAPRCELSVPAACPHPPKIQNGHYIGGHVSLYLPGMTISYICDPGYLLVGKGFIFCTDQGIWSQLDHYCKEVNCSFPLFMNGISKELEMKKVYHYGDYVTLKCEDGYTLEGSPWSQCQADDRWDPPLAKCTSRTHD", "UniProt A5K736, residues 161-1454": "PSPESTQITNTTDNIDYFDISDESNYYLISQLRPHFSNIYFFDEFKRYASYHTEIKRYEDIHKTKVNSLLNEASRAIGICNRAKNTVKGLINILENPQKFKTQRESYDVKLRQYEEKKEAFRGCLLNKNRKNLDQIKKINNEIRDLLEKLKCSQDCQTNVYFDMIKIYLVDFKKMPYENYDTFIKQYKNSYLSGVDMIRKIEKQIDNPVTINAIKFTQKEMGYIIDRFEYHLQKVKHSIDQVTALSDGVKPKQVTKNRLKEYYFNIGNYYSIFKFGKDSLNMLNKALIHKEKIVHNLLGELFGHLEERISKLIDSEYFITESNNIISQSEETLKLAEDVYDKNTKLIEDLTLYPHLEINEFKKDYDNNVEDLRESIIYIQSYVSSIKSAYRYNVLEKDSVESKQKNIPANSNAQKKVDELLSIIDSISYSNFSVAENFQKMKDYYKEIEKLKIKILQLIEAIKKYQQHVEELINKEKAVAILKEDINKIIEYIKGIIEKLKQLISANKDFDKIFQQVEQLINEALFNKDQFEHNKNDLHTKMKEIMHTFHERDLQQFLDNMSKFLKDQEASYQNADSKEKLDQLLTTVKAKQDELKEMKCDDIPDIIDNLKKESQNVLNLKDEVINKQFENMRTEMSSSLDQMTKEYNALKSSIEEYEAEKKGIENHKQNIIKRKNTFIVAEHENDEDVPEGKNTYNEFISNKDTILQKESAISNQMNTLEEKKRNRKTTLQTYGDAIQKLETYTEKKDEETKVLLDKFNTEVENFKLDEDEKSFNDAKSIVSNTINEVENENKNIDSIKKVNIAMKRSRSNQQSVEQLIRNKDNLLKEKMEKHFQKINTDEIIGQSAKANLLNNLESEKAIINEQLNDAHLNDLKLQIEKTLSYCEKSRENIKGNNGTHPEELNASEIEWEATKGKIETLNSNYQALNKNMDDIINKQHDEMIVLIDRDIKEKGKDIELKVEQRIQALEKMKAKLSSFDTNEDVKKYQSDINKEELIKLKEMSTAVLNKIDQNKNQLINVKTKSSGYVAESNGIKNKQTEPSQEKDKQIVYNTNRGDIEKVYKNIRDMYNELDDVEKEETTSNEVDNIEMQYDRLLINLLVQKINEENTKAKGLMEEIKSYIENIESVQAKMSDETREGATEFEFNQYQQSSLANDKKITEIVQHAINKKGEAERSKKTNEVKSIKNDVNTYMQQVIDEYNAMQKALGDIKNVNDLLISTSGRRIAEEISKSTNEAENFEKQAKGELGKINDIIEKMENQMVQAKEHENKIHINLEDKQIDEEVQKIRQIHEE"},
  "source": "paper PMC6586822",
  "target": "soluble recombinant CR1 protein (human) (UniProt P17927)",
  "test": "co-IP; recombinant proteins incubated at 0.05 mg/ml in 50-100 µl for 1 hour at room temperature; sCR1 captured with anti-CR1 mAb HB8592 (0.02 mg/ml) and Protein G Sepharose; beads washed three times with PBS; eluates on reducing SDS-PAGE, SimplyBlue SafeStain; both purified",
  "note": "These are yes or no findings as the source states them, for the method shown.",
  "data": [
    {"substance": "PvRBP2b (amino acids 161-1454) (from UniProt A5K736 161-1454) (domain or fragment)", "values": [
      {"measurement": "binding", "value": "no binding (tested: 0.05 mg/ml)"}
    ]}
  ]
}
